Results as given in patent US20120046363A1, “DOCOSAHEXAENOIC ACID FOR THE TREATMENT OF HEART FAILURE” (University of Maryland, Baltimore, priority 2009, published 2012).
At least one compound was matched to its structure with a doubt left.

Columns and labels:
[1] = Plasma free fatty acids and triglycerides after dietary supplementation (Series 1); format: in vivo, male Wistar rats; details: 2.5% of caloric intake, 8 weeks, FIG. 7
Protocol: (§1) Experimental Design: The animal protocol was conducted according to the Guideline for the Care and Use of Laboratory Animals (NIH publication 85-23) and was approved by the University of Maryland School of Medicine Institutional Animal Care and Use Committee. Investigators were blinded to treatment when measurements were performed. The animals were maintained on a reverse 12-h light-dark cycle and all procedures were performed in the fed state between 3 and 6 h from the start of the dark phase. Two series of experiments were performed. In the initial studies (Series 1) male Wistar rats weighing 190-200 g were fed a standard low fat diet (CTRL) or modified standard diet containing DHA or EPA at 2.5% of total caloric intake, which corresponds to a human intake of approximately 5.5 g/day (calculated assuming an energy intake of 2000 kcal/day and 9 kcal/g of fat). The rats were maintained on the diet for 8 weeks. […] Plasma from these animals was analyzed for free fatty acids and triglyceride levels, and cardiac mitochondria for respiration, Ca^2+ retention capacity (an index of MPTP opening), VDAC and cyclophilin D, and membrane phospholipid composition as described below. […]
Metabolic and Biochemical Parameters: Free fatty acids and triglycerides were assessed in the plasma using commercially available kits (Wako, Richmond, Va.). […] The digitized image was analyzed with Odyssey® software.

[2] = test system: isolated cardiac mitochondria; assay: Cardiac mitochondrial phospholipid fatty acid composition by gas chromatography; format: in vivo, male Wistar rats; details: Series 1, 8 weeks diet; mean ± SEM; BQL = below the quantifiable limit (limit of detection = 0.41%)
Protocol: as §1
(§2) Mitochondrial Preparation: Mitochondria were isolated as previously described^228. […] The concentration of mitochondrial protein was measured by the Lowry method using bovine serum albumin as a standard. […]

[3] = test system: isolated cardiac mitochondria; assay: Cardiac mitochondrial cardiolipin (CL) content and composition by electrospray ionization mass spectrometry; format: in vivo, male Wistar rats; details: Series 1, FIG. 9
Protocol: as §1, §2

[4] = test system: mitochondrial permeability transition pore (MPTP); assay: High throughput Ca2+ retention assay with different respiratory substrates (Series 2); format: in vivo, rats; details: DHA 2.5% of caloric intake, all substrates except palmitoylcarnitine+malate, FIG. 12
[5] = test system: isolated cardiac mitochondria; assay: Ca2+-induced mitochondrial swelling, light scattering at 540 nm (Series 2); format: in vivo, rats; details: DHA 2.5% of caloric intake, 50 or 100 nmoles Ca2+, FIGS. 13 and 14

CC/C=C\C/C=C\C/C=C\C/C=C\C/C=C\C/C=C\CCC(=O)O [DHA, docosahexaenoic acid]
plasma free fatty acid concentration compared to CTRL [1]: lowered | plasma triglyceride concentration compared to CTRL [1]: lowered | Mitochondrial phospholipid C16:1 [2]: BQL | CL species containing one ARA and three linoleic acid moieties (ARA1L3CL) ([3]; compared to CTRL): decrease | L4CL (tetralinoleoyl CL) as percentage of total CL ([3]; vs CTRL): increase | Ca2+ retention capacity compared to CTRL [4]: significantly enhanced | Ca2+-induced decrease in absorbance at 540 nm (swelling) [5]: significantly attenuated
